Data source: PubChem BioAssay AID686943 (Drosophila RNAi Screening Center, 2013)
The deposit covers about 23,000 reagents; this is an unselected part of those with a known target gene and a result. 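Extra replicates exist only for a retested subset of genes; insulin dose and duration not given; both raised and lowered dpERK matter.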 The numbers tell different reagents against one gene apart. Further read-outs or replicates are left out here. No sequences are given here. Not given: the amount of reagent, the time to read-out.

- Test: 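Fly genes whose loss alters ERK activation after insulin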 (primary screen)
- System: Drosophila S2R+ haemocyte-like cells expressing YFP-tagged ERK (Rolled)
- Reagents: long dsRNA against Drosophila genes
- Challenge: insulin stimulation versus unstimulated cells; dose and duration not given
- Measured: 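Per-plate z-scores of phospho-ERK immunostaining normalised to YFP-tagged ERK, measured with and without insulin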
- Direction: replicate 1, z-score of dpERK with insulin: higher = more active ERK per ERK-YFP after insulin

| Target gene | reagent no. | replicate 1, z-score of dpERK with insulin |
| --- | --- | --- |
| Tango14 | 1 | 0.48 |
| CG5883 | 1 | 0.52 |
| CecA1 | 1 | 0.25 |
| Cp7Fb | 1 | -0.38 |
| hydra | 1 | -0.44 |
| CG8757 | 1 | -0.1 |
| ytr | 1 | 0.47 |
| ytr | 2 | 0.73 |
| gce | 1 | 0.26 |
| gce | 2 | 0.78 |
| cutlet | 1 | 0.06 |
| zen | 1 | -1.07 |
| Top2 | 1 | 3.06 |
| CG3301 | 1 | 0.22 |
| Decay | 1 | -0.28 |
| CG6163 | 1 | 0.2 |
| CG4914 | 1 | -0.35 |
| RpL26 | 1 | -3.59 |
| Herp | 1 | -0.03 |
| CG12194 | 1 | 0.81 |
| CG13721 | 1 | 0.06 |
| dsx-c73A | 1 | -0.02 |
| dsx-c73A | 2 | 0.59 |
| dsx-c73A | 3 | 0.83 |
| CG14963 | 1 | 0.19 |
| CG12519 | 1 | 0.11 |
| CG12519 | 2 | 0.51 |
| hwt | 1 | 2.79 |
| hwt | 2 | 0.01 |
| CG15099 | 1 | 0.27 |
| Arp3 | 1 | -1.36 |
| U2A | 1 | 0.88 |
| CG3939 | 1 | 1.42 |
| otu | 1 | 0.31 |
| Prosbeta4R2 | 1 | -0.31 |
| CG33136 | 1 | 0.37 |
| MAN1 | 1 | -0.33 |
| CG14915 | 1 | 0.22 |
| Drep2 | 1 | -0.41 |
| Neos | 1 | 1.15 |
| Nubp2 | 1 | 0.28 |
| CG11588 | 1 | -0.23 |
| CG11588 | 2 | 0.64 |
| Gpb5 | 1 | 0.21 |
| Lcp9 | 1 | -1.85 |
| Ag5r2 | 1 | -0.29 |
| dgt2 | 1 | 0.16 |
| Lcch3 | 1 | 0.43 |
| Ir56a | 1 | -0.25 |
| CG13114 | 1 | 0.09 |
| Clbn | 1 | 0.59 |
| CG31949 | 1 | 0.1 |
| CG17738 | 1 | -0.2 |
| CG12024 | 1 | 1.69 |
| CG13921 | 1 | 0.06 |
| skl | 1 | -0.05 |
| Jhbp6 | 1 | 0.35 |

Laid out differently: 7 of the entries above.
CG3939
- replicate 1, z-score of dpERK with insulin: 1.42

otu
- replicate 1, z-score of dpERK with insulin: 0.31

Prosbeta4R2
- replicate 1, z-score of dpERK with insulin: -0.31

CG33136
- replicate 1, z-score of dpERK with insulin: 0.37

MAN1
- replicate 1, z-score of dpERK with insulin: -0.33

CG14915
- replicate 1, z-score of dpERK with insulin: 0.22

Drep2
- replicate 1, z-score of dpERK with insulin: -0.41
